# Test results from the supplement of paper PMC8728848.
# This is one part of the list.
# B1: AFL6 (Aspergillus fumigatus), Q4WKJ1 (protein)
# chain: MSFHLTAEDIRIEDGHRLVARLRNADGDLQDASIDLNTCLGNDNGHFQWDGVDFSHSAQDVHFAIEGGGQVPVLRAQLANQDGEFQDADVNLSERIENINGEFVFH
# Experiments:
# Assay in all cases: glycan array binding signal (z-score within array); higher = stronger binding
# Conditions in all cases: glycan notation: IUPAC condensed, linker removed
# Fuc(a1-2)Gal = target: Fuc(a1-2)Gal
# Summary of the method: (§1)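 Glycan array data came from 3228 arrays in the Consortium for Functional Glycomics database, and only arrays with an available protein sequence were kept. Glycan names were put into IUPAC-condensed notation, and columns mapping to the same glycan were averaged. The binding signal is a within-array Z-score, averaged across arrays of one protein sequence run at different concentrations or buffers and across linkers. A negative Z-score can be read as non-binding.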
# Fuc(a1-2)Gal(b1-3)GalNAc = target: Fuc(a1-2)Gal(b1-3)GalNAc
# Summary of the method: as §1
# [1] = target: Fuc(a1-2)Gal(b1-3)GalNAc(a1-3)[Fuc(a1-2)]Gal(b1-4)Glc
# Summary of the method: as §1
# [2] = target: Fuc(a1-2)Gal(b1-3)GalNAc(a1-3)[Fuc(a1-2)]Gal(b1-4)GlcNAc
# Summary of the method: as §1
# [3] = target: Fuc(a1-2)Gal(b1-3)GalNAc(b1-3)Gal
# Summary of the method: as §1
# [4] = target: Fuc(a1-2)Gal(b1-3)GalNAc(b1-3)Gal(a1-4)Gal(b1-4)Glc
# Summary of the method: as §1
# [5] = target: Fuc(a1-2)Gal(b1-3)GalNAc(b1-4)[Neu5Ac(a2-3)]Gal(b1-4)Glc
# Summary of the method: as §1
# Fuc(a1-2)Gal(b1-3)GlcNAc = target: Fuc(a1-2)Gal(b1-3)GlcNAc
# Summary of the method: as §1
# [6] = target: Fuc(a1-2)Gal(b1-3)GlcNAc(b1-2)Man(a1-3)[Fuc(a1-2)Gal(b1-3)GlcNAc(b1-2)Man(a1-6)]Man(b1-4)GlcNAc(b1-4)GlcNAc
# Summary of the method: as §1
# [7] = target: Fuc(a1-2)Gal(b1-3)GlcNAc(b1-2)Man(a1-3)[Fuc(a1-2)Gal(b1-3)GlcNAc(b1-2)Man(a1-6)]Man(b1-4)GlcNAc(b1-4)[Fuc(a1-6)]GlcNAc
# Summary of the method: as §1
# [8] = target: Fuc(a1-2)Gal(b1-3)GlcNAc(b1-3)Gal(b1-4)Glc
# Summary of the method: as §1
# [9] = target: Fuc(a1-2)Gal(b1-3)GlcNAc(b1-3)GalNAc
# Summary of the method: as §1
# [10] = target: Fuc(a1-2)Gal(b1-3)GlcNAc(b1-3)[Fuc(a1-2)Gal(b1-3)GlcNAc(b1-6)]GalNAc
# Summary of the method: as §1
# [11] = target: Fuc(a1-2)Gal(b1-3)GlcNAc(b1-3)[Gal(b1-4)GlcNAc(b1-6)]Gal(b1-4)Glc
# Summary of the method: as §1
# [12] = target: Fuc(a1-2)Gal(b1-3)GlcNAc(b1-3)[Neu5Ac(a2-6)Gal(b1-4)GlcNAc(b1-6)]Gal(b1-4)Glc
# Summary of the method: as §1
# [13] = target: Fuc(a1-2)Gal(b1-3)GlcNAc6S
# Summary of the method: as §1
# [14] = target: Fuc(a1-2)Gal(b1-3)[Fuc(a1-4)]GlcNAc
# Summary of the method: as §1
# [15] = target: Fuc(a1-2)Gal(b1-3)[Fuc(a1-4)]GlcNAc(b1-2)Man(a1-3)[Fuc(a1-2)Gal(b1-3)[Fuc(a1-4)]GlcNAc(b1-2)Man(a1-3)]Man(b1-4)GlcNAc(b1-4)GlcNAc
# Summary of the method: as §1
# [16] = target: Fuc(a1-2)Gal(b1-3)[Fuc(a1-4)]GlcNAc(b1-2)Man(a1-3)[Fuc(a1-2)Gal(b1-3)[Fuc(a1-4)]GlcNAc(b1-2)Man(a1-6)]Man(b1-4)GlcNAc(b1-4)[Fuc(a1-6)]GlcNAc(b1-4)[Fuc(a1-6)]GlcNAc
# Summary of the method: as §1
# [17] = target: Fuc(a1-2)Gal(b1-3)[Fuc(a1-4)]GlcNAc(b1-3)[Fuc(a1-3)[Gal(b1-4)]GlcNAc(b1-6)]Gal(b1-4)Glc
# Summary of the method: as §1
# [18] = target: Fuc(a1-2)Gal(b1-3)[Fuc(a1-4)]GlcNAc(b1-3)[Gal(b1-4)GlcNAc(b1-6)]Gal(b1-4)Glc
# Summary of the method: as §1
# [19] = target: Fuc(a1-2)Gal(b1-4)Fuc(a1-3)]GlcNAc(b1-2)Man(a1-3)[Fuc(a1-2)Gal(b1-4)[Fuc(a1-3)]GlcNAc(b1-2)Man(a1-6)]Man(b1-4)GlcNAc(b1-4)GlcNAc
# Summary of the method: as §1
# Fuc(a1-2)Gal(b1-4)Glc = target: Fuc(a1-2)Gal(b1-4)Glc
# Summary of the method: as §1
# Fuc(a1-2)Gal(b1-4)Glc6S = target: Fuc(a1-2)Gal(b1-4)Glc6S
# Summary of the method: as §1
# Fuc(a1-2)Gal(b1-4)GlcNAc = target: Fuc(a1-2)Gal(b1-4)GlcNAc
# Summary of the method: as §1
# [20] = target: Fuc(a1-2)Gal(b1-4)GlcNAc(b1-2)Man
# Summary of the method: as §1
# [21] = target: Fuc(a1-2)Gal(b1-4)GlcNAc(b1-2)Man(a1-3)[Fuc(a1-2)Gal(b1-4)GlcNAc(b1-2)Man(a1-6)]Man(b1-4)GlcNAc(b1-4)GlcNAc
# Summary of the method: as §1
# [22] = target: Fuc(a1-2)Gal(b1-4)GlcNAc(b1-2)Man(a1-3)[Fuc(a1-2)Gal(b1-4)GlcNAc(b1-2)Man(a1-6)]Man(b1-4)GlcNAc(b1-4)[Fuc(a1-6)]GlcNAc
# Summary of the method: as §1
# [23] = target: Fuc(a1-2)Gal(b1-4)GlcNAc(b1-2)[Fuc(a1-2)Gal(b1-4)GlcNAc(b1-4)]Man(a1-3)[Fuc(a1-2)Gal(b1-4)GlcNAc(b1-2)Man(a1-6)]Man(b1-4)GlcNAc(b1-4)GlcNAc
# Summary of the method: as §1
# [24] = target: Fuc(a1-2)Gal(b1-4)GlcNAc(b1-3)Gal(b1-4)GlcNAc
# Summary of the method: as §1
binder,measurement,setting,value
B1,glycan array binding signal (z-score),Fuc(a1-2)Gal,-0.499
same,glycan array binding signal (z-score),Fuc(a1-2)Gal(b1-3)GalNAc,-0.354
same,glycan array binding signal (z-score),[1],-0.421
same,glycan array binding signal (z-score),[2],0.068
same,glycan array binding signal (z-score),[3],0.034
same,glycan array binding signal (z-score),[4],-0.515
same,glycan array binding signal (z-score),[5],0.764
same,glycan array binding signal (z-score),Fuc(a1-2)Gal(b1-3)GlcNAc,-0.167
same,glycan array binding signal (z-score),[6],2.45
same,glycan array binding signal (z-score),[7],0.456
same,glycan array binding signal (z-score),[8],-0.196
same,glycan array binding signal (z-score),[9],-0.615
same,glycan array binding signal (z-score),[10],0.086
same,glycan array binding signal (z-score),[11],0.033
same,glycan array binding signal (z-score),[12],-0.619
same,glycan array binding signal (z-score),[13],-0.598
same,glycan array binding signal (z-score),[14],-0.258
same,glycan array binding signal (z-score),[15],1.02
same,glycan array binding signal (z-score),[16],0.059
same,glycan array binding signal (z-score),[17],-0.86
same,glycan array binding signal (z-score),[18],-0.672
same,glycan array binding signal (z-score),[19],1.9
same,glycan array binding signal (z-score),Fuc(a1-2)Gal(b1-4)Glc,0.026
same,glycan array binding signal (z-score),Fuc(a1-2)Gal(b1-4)Glc6S,-0.234
same,glycan array binding signal (z-score),Fuc(a1-2)Gal(b1-4)GlcNAc,-0.661
same,glycan array binding signal (z-score),[20],-0.134
same,glycan array binding signal (z-score),[21],1.61
same,glycan array binding signal (z-score),[22],0.943
same,glycan array binding signal (z-score),[23],0.487
same,glycan array binding signal (z-score),[24],-0.096

# A stretch taken from the entries so far, for reference:
binder,measurement,setting,value
B1,glycan array binding signal (z-score),[6],2.45
same,glycan array binding signal (z-score),[7],0.456
